Primary screen of a compound library

Chains of the proteins cited; added tags and fusions are not shown.
UniProt E9BF75, entry or part of it: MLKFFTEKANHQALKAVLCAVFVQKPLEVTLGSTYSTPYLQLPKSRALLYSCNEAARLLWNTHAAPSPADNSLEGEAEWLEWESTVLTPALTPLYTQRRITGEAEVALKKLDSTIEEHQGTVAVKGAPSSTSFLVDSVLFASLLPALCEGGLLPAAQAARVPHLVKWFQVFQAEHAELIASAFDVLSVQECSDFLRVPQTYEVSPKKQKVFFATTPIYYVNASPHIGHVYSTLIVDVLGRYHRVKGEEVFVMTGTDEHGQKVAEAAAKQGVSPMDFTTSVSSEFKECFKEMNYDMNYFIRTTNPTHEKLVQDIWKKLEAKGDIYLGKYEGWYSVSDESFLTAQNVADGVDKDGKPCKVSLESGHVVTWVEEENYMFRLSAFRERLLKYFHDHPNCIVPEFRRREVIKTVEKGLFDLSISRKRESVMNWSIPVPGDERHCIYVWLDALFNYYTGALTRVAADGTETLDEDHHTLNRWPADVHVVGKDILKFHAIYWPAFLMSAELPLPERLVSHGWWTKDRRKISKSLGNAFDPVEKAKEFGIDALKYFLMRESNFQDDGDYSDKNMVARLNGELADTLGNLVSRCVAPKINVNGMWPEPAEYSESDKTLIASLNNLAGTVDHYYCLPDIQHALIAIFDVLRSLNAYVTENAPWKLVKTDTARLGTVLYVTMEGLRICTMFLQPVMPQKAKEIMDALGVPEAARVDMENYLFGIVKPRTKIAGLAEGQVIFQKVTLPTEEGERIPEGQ

Measurements from “University of Dundee, Small-Polar-MMV Screening Library” (2021), ChEMBL document CHEMBL3988442.

All values are in %.
The controls that fix the scale are not given in the record; negative values are as filed.
Compounds were drawn at random from those tested, without regard to their results.

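Primary screen of methionyl-tRNA synthetase; the read-out is not stated. Target: Methionyl-tRNA synthetase (putative), Leishmania donovani (UniProt E9BF75). The test concentration is not given. The values are filed as inhibition. Of about 68,000 compounds tested this way, about 24 (0.035%) reached 50% or more in at least one test.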

structure,Inhibition
Cc1cccc(CN(Cn2nc(C)c3c(C)onc3c2=O)C2CC2)c1,20.21
CC(C)(C)OC(=O)NCCC(=O)NCC(O)c1cccc(F)c1 (configuration not stated),13.48
CCOCC(O)CN1CCN(C(=O)c2cnc3n[nH]c(C)c3c2)CC1 (configuration not stated),12.6
CN(C)S(=O)(=O)N1CCCC1CC(=O)c1cccs1 (configuration not stated),10.51
Cc1nc(NCC2CC2)nc2c1COCC21CCN(C)C1 (configuration not stated),14.98
CCc1ncc(C(=O)N2CCn3c(CC)nnc3C2)s1,13.54
CCc1nc(C2CCCN(c3nccc(C)n3)C2)no1 (configuration not stated),3.308
Cc1ccc(C(=O)NCCNC(=O)c2cncnc2C(C)C)cc1F,-4.337
CCc1nc(C2CCCN2Cc2cc(=O)n(C)c(=O)n2C)no1 (configuration not stated),14.74
Cc1cc(NC(=O)NCc2ccc(C)s2)no1,18.75
N#Cc1cn(CC(=O)NC2CC2)c2ccc(Br)cc2c1=O,17.56
Cc1cccc(CN2C(=O)C[C@H]3[C@@H]2CCN3CC2CC2)n1,19.87
CC(C)c1nnc2n1CCN(CCS(=O)(=O)c1ccccc1)C2,6.024
CCN1CCN(C(=O)c2nc(C)n(-c3ccccc3Cl)n2)CC1,12.6
CCN(Cc1ccccn1)C1CCN(c2ccccc2)C1=O (configuration not stated),17.04
CC(NC(=O)N1CCC2(C1)OCCO2)c1cccc(Cl)c1 (configuration not stated),4.511
Cc1ccc(S(=O)(=O)N2CCOCC2C#N)c(F)c1 (configuration not stated),20.99
O=C(c1cscn1)N1CCC2(CC1)CN(c1ccccn1)CCO2,4.667
CC(SCCC(=O)NC(N)=O)c1c(F)cccc1F (configuration not stated),-1.047
CC(C)OC(=O)N1CCCC(c2nccn2Cc2ccncc2)C1 (configuration not stated),10.64
COc1ncccc1CNC(=O)c1cnccn1,13.72
O=C(Nc1cccnc1)[C@H]1CN(Cc2ccccn2)C[C@H]2OCC[C@@H]12,16.81
O=C(C1=CCCC1)N1C[C@H](Oc2cccnc2)[C@H]2OCCC[C@H]21,11.43
CS(=O)(=O)N1CCC2(CCN(C(=O)c3cccnc3)CC2)C1,19.38
CCn1cnnc1C1CCN(C(=O)CC(C)n2cccc2)CC1 (configuration not stated),-0.9639
COc1cc(C)nc(N2CCN(C(=O)CCc3cccs3)CC2)n1,20.4
O=C(Cc1ccc2c(c1)CCC2)NCCNc1cnccn1,23.43
CC(C)(N)CN1CCC(c2nnc(CN3CCCC3)n2C2CC2)CC1,16.59
O=C(c1cnc(Cc2c(Cl)cccc2Cl)nc1O)N1CCNCC1,5.974
CNC(=O)[C@H]1C[C@@H]2CN(S(=O)(=O)c3cccc(C)c3)C[C@@H]2N1C,13.33
CCn1ncc2c1CCCC2NCc1ccccc1N1CCOCC1 (configuration not stated),11.75
CCSc1ccccc1C(=O)N1CCC(S(=O)(=O)c2nncn2C)CC1,6.522
CC(=O)N[C@@H]1CN(C2CCN(c3cccc(Cl)c3)CC2)C[C@H]1C(C)C,10.57
Cn1nccc1NCc1cc2cc(F)ccc2o1,6.989
CC(c1ccc(Cl)cc1)N1CCN(CCCS(C)(=O)=O)CC1 (configuration not stated),12.37
Cc1nnc2n1CCN(C(=O)c1cn(-c3ccccc3)nn1)C2,17.18
O=C(NCCc1c[nH]c2ccccc12)C1CCC(Cn2cnnn2)CC1 (configuration not stated),11.21
CN(C)c1ncc(CNC2CC(=O)N(CCc3cccc(Cl)c3)C2)s1 (configuration not stated),11.04
CC1CCN(C(=O)CSCc2noc(C(C)C)n2)CC1,16.19
CCn1cc(CNCCNc2ncc(Cl)cc2Cl)cn1,-2.514
COC[C@]12COC[C@H]1CN(C(=O)C1CC(F)(F)C1)C2,15.79
Cc1cc(C)n(C2CN(CC(O)c3ccc4c(c3)OCO4)C2)n1 (configuration not stated),16.6
CCc1nnc(Nc2cccc(C3CCN(C(=O)CNC)CC3)n2)s1,3.236
N#Cc1ccc(F)c(CN2CCCC2Cn2cncn2)c1 (configuration not stated),12.88
Cn1cc(CN2CCC(c3cc(CCO)[nH]n3)C2)cn1 (configuration not stated),6.231
CN(C)c1ncc2c(n1)N(C)CCN(CC1CC1)C2=O,11.41
COc1ccc(C(=O)N2CC(=O)N(C3CCC3)CC(O)C2)c(OC)c1 (configuration not stated),15.62
COc1ccc(CNC(=O)CCSCc2csc(C)n2)cn1,20.56
N#CCCCOc1cccnc1NC(=O)CCC1CCCC1,18.41
CC(C)N1CC(C(=O)NCCOc2ccc3c(c2)OCO3)CC1=O (configuration not stated),5.512
N#Cc1cn(CCCN2CCc3ccccc32)c(=O)[nH]c1=O,2.431
NS(=O)(=O)c1cccnc1NCc1ccco1,12.63
COc1ccc(-n2cc(CNC(=O)c3ccccn3)nn2)cc1,18.87
Cc1nc(CN2CC[C@H]3[C@@H]2CCC(=O)N3c2cnn(C)c2)cs1,2.466
Cc1noc(C)c1C(=O)N1C[C@H]2CC[C@@H]1CN(c1cnccn1)C2,10.47
CCS(=O)(=O)N1CCC2(CC(=O)N(c3ccc4c(c3)OCO4)C2)C1 (configuration not stated),2.963
Cc1cc2c(cc1Cl)C=CC1(CCN(CC(=O)N3CCOCC3)CC1)O2,2.83
CCc1cc(N2CCC(NCCc3ccc(C)o3)CC2)nc(C)n1,27.86
O=C(CCN1CCCCCC1c1ccco1)N1CCOCC1 (configuration not stated),6.522
Cn1nccc1CCC(=O)N1CCC(c2cnccn2)CC1,9.646
COc1ccc(S(=O)(=O)N[C@H]2CN(C(C)=O)C[C@@H]2C(C)C)cc1F,13.68

8 of the entries, repeated:

{"structure": "COc1ccc(CNC(=O)CCSCc2csc(C)n2)cn1", "Inhibition": 20.56}
{"structure": "O=C(CCN1CCCCCC1c1ccco1)N1CCOCC1", "stereo": "configuration not stated", "Inhibition": 6.522}
{"structure": "N#CCCCOc1cccnc1NC(=O)CCC1CCCC1", "Inhibition": 18.41}
{"structure": "COc1cc(C)nc(N2CCN(C(=O)CCc3cccs3)CC2)n1", "Inhibition": 20.4}
{"structure": "N#Cc1cn(CC(=O)NC2CC2)c2ccc(Br)cc2c1=O", "Inhibition": 17.56}
{"structure": "O=C(NCCc1c[nH]c2ccccc12)C1CCC(Cn2cnnn2)CC1", "stereo": "configuration not stated", "Inhibition": 11.21}
{"structure": "CN(C)c1ncc2c(n1)N(C)CCN(CC1CC1)C2=O", "Inhibition": 11.41}
{"structure": "CNC(=O)[C@H]1C[C@@H]2CN(S(=O)(=O)c3cccc(C)c3)C[C@@H]2N1C", "Inhibition": 13.33}